Laboratory results published in patent US8008525B2, “Receptor function regulating agent” (Takeda Pharmaceutical Company Limited, priority 2003, dated 2011).
At least one compound was matched to its structure with a doubt left.

Molecular target: T1, mouse 14273 receptor (Mus musculus, UniProt Q7TMA4)
T1 construct: expressed in transfected cells; host or cells: CHO-K1 cells, transient transfection with Lipofectamine
T1 sequence (Q7TMA4 1-361): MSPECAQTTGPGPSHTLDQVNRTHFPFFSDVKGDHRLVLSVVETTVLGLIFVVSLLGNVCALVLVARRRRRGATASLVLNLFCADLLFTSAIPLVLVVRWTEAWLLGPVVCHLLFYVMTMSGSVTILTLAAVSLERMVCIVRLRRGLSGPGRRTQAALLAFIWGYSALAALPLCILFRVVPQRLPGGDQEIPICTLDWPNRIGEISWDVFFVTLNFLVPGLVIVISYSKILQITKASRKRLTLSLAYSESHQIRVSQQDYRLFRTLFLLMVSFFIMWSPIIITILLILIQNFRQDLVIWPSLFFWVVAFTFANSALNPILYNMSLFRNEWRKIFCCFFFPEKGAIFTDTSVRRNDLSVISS
Assay: Reference Example A2: reactivity of fatty acids, intracellular calcium by FLIPR in CHO-K1 cells expressing mouse 14273 receptor
Format: cell-based
Details: 30 μM fatty acid; CHO-K1 cells transiently expressing mouse 14273; FLIPR (FIG. 1-5)
Experimental: CHO-K1 cell line was cultured using Ham's F-12 medium (Invitrogen) containing 10% fetal bovine serum (Invitrogen), unless otherwise described. On the day before transfection was conducted, 4.5×10^5 cells were dispersed per 10 cm^2, and cultured at 37° C. for 15 hours by a CO2 incubator adjusted to a CO2 concentration of 5%. Transfection was carried out using a Lipofectamine reagent (Invitrogen) in accordance with the instruction accompanying the reagent. In the case of using a 6-well plate as culture dish, the following steps were performed. First of all, two tubes having a volume of 1.5 ml each were provided, and 100 μl of an Opti-MEM-I medium (Invitrogen) was dispensed to each of the tubes. […] The number of the obtained cells was measured, and the cells were diluted to a concentration of 5×10^4 cells per 100 μl of the medium. […] To the CHO-K1 cells which transiently expressed the receptor during the transfection operation, various test samples were added, and the change in the intracellular calcium concentration during this operation was measured using FLIPR (Molecular Device). […] After performing the pretreatment as described above, the changes in the intracellular calcium concentration after addition of various test samples were measured using FLIPR.

## CC/C=C\C/C=C\C/C=C\C/C=C\C/C=C\C/C=C\CCC(=O)O [docosahexaenoic acid]
  response (increase in the intracellular calcium concentration): specifically responsed
